Results are given in words; binding and its absence hold for the method and conditions named. In cells and extracts the contact can be indirect. A result given as binding can be weak or reduced; the word gives no strength. Tags and fused reporters may be left off the sequences shown.
Target: T1, SPTLC2^FLAG (WT-SPTLC2 with C-terminal 3xFLAG), in Flp-In T-REx 293 SPTLC2-KO cells (human) (UniProt O15270)
T1 sequence: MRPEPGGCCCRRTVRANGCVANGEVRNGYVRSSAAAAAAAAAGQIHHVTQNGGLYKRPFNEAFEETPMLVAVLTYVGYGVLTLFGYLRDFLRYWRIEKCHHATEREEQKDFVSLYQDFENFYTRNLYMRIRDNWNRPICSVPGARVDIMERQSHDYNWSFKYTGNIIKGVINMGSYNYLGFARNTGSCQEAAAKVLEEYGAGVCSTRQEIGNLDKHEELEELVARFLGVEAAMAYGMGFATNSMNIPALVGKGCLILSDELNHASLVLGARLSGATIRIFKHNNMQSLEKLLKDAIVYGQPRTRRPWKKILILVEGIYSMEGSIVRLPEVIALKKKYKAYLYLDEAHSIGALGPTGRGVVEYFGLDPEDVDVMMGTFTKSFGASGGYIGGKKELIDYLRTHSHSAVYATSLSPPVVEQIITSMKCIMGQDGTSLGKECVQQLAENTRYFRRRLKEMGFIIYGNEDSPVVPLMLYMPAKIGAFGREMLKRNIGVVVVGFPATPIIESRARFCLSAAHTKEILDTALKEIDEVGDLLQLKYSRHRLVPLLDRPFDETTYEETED
Test: co-IP; heavy membrane fractions of Flp-In T-REx 293 SPTLC2-KO cells with or without WT-, ER- or OM-SPTLC2^FLAG, solubilised with digitonin, FLAG-immunoprecipitation on anti-FLAG M2 beads, eluted with Laemmli buffer, immunoblotting

Substance: CLPB (human (endogenous in Flp-In T-REx 293))
- binding: binds
